No constants are given. Whether binding was seen depends on the method and setting. In cells and extracts the contact can be indirect. Some entries that bind do so weakly or less than the wild type.
B1: ZCCHC8 (protein, UniProt Q6NZY4 1-707)
chain: MAAEVYFGDLELFEPFDHPEESIPKPVHTRFKDDDGDEEDENGVGDAELRERLRQCEETIEQLRAENQELKRKLNILTRPSGILVNDTKLDGPILQILFMNNAISKQYHQEIEEFVSNLVKRFEEQQKNDVEKTSFNLLPQPSSIVLEEDHKVEESCAIKNNKEAFSVVGSVLYFTNFCLDKLGQPLLNENPQLSEGWEIPKYHQVFSHIVSLEGQEIQVKAKRPKPHCFNCGSEEHQMKDCPMPRNAARISEKRKEYMDACGEANNQNFQQRYHAEEVEERFGRFKPGVISEELQDALGVTDKSLPPFIYRMRQLGYPPGWLKEAELENSGLALYDGKDGTDGETEVGEIQQNKSVTYDLSKLVNYPGFNISTPRGIPDEWRIFGSIPMQACQQKDVFANYLTSNFQAPGVKSGNKRSSSHSSPGSPKKQKNESNSAGSPADMELDSDMEVPHGSQSSESFQFQPPLPPDTPPLPRGTPPPVFTPPLPKGTPPLTPSDSPQTRTASGAVDEDALTLEELEEQQRRIWAALEQAESVNSDSDVPVDTPLTGNSVASSPCPNELDLPVPEGKTSEKQTLDEPEVPEIFTKKSEAGHASSPDSEVTSLCQKEKAELAPVNTEGALLDNGSVVPNCDISNGGSQKLFPADTSPSTATKIHSPIPDMSKFATGITPFEFENMAESTGMYLRIRSLLKNSPRNQQKNKKASE
B2: RBM7 (protein, UniProt Q9Y580 1-266)
chain: MGAAAAEADRTLFVGNLETKVTEELLFELFHQAGPVIKVKIPKDKDGKPKQFAFVNFKHEVSVPYAMNLLNGIKLYGRPIKIQFRSGSSHAPQDVSLSYPQHHVGNSSPTSTSPSRYERTMDNMTSSAQIIQRSFSSPENFQRQAVMNSALRQMSYGGKFGSSPLDQSGFSPSVQSHSHSFNQSSSSQWRQGTPSSQRKVRMNSYPYLADRHYSREQRYTDHGSDHHYRGKRDDFFYEDRNHDDWSHDYDNRRDSSRDGKWRSSRH
B3: PABPN1 (protein, UniProt Q86U42 1-306)
chain: MAAAAAAAAAAGAAGGRGSGPGRRRHLVPGAGGEAGEGAPGGAGDYGNGLESEELEPEELLLEPEPEPEPEEEPPRPRAPPGAPGPGPGSGAPGSQEEEEEPGLVEGDPGDGAIEDPELEAIKARVREMEEEAEKLKELQNEVEKQMNMSPPPGNAGPVIMSIEEKMEADARSIYVGNVDYGATAEELEAHFHGCGSVNRVTILCDKFSGHPKGFAYIEFSDKESVRTSLALDESLFRGRQIKVIPKRTNRPGISTTDRGFPRARYRARTTNYNSSRSRFYSGFNSRPRGRVYRGRARATSWYSPY

Chains of the proteins cited; added tags and fusions are not shown.
UniProt P04198: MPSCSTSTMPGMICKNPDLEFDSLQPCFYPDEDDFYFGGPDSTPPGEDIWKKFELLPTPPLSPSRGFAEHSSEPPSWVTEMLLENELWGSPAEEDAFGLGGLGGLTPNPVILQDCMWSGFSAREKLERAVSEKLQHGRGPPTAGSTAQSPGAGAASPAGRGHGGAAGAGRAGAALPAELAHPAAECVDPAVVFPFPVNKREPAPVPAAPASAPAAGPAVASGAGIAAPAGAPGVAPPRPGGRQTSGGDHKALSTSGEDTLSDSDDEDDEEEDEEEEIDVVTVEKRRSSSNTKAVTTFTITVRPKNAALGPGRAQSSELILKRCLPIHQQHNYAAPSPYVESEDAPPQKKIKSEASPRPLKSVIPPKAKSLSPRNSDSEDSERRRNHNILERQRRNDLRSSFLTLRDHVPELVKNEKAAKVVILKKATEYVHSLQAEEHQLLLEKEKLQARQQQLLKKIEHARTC
UniProt Q9NQT4: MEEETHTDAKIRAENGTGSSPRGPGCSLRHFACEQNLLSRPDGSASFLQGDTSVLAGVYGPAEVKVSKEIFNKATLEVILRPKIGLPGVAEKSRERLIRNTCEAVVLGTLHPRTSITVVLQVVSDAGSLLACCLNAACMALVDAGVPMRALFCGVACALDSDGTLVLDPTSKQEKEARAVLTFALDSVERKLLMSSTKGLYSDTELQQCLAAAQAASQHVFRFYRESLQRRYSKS
UniProt P61244: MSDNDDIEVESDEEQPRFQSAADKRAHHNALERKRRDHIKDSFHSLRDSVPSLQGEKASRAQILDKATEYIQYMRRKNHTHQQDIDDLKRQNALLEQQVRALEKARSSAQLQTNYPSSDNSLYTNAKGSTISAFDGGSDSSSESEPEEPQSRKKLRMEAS
UniProt Q9Y4A5: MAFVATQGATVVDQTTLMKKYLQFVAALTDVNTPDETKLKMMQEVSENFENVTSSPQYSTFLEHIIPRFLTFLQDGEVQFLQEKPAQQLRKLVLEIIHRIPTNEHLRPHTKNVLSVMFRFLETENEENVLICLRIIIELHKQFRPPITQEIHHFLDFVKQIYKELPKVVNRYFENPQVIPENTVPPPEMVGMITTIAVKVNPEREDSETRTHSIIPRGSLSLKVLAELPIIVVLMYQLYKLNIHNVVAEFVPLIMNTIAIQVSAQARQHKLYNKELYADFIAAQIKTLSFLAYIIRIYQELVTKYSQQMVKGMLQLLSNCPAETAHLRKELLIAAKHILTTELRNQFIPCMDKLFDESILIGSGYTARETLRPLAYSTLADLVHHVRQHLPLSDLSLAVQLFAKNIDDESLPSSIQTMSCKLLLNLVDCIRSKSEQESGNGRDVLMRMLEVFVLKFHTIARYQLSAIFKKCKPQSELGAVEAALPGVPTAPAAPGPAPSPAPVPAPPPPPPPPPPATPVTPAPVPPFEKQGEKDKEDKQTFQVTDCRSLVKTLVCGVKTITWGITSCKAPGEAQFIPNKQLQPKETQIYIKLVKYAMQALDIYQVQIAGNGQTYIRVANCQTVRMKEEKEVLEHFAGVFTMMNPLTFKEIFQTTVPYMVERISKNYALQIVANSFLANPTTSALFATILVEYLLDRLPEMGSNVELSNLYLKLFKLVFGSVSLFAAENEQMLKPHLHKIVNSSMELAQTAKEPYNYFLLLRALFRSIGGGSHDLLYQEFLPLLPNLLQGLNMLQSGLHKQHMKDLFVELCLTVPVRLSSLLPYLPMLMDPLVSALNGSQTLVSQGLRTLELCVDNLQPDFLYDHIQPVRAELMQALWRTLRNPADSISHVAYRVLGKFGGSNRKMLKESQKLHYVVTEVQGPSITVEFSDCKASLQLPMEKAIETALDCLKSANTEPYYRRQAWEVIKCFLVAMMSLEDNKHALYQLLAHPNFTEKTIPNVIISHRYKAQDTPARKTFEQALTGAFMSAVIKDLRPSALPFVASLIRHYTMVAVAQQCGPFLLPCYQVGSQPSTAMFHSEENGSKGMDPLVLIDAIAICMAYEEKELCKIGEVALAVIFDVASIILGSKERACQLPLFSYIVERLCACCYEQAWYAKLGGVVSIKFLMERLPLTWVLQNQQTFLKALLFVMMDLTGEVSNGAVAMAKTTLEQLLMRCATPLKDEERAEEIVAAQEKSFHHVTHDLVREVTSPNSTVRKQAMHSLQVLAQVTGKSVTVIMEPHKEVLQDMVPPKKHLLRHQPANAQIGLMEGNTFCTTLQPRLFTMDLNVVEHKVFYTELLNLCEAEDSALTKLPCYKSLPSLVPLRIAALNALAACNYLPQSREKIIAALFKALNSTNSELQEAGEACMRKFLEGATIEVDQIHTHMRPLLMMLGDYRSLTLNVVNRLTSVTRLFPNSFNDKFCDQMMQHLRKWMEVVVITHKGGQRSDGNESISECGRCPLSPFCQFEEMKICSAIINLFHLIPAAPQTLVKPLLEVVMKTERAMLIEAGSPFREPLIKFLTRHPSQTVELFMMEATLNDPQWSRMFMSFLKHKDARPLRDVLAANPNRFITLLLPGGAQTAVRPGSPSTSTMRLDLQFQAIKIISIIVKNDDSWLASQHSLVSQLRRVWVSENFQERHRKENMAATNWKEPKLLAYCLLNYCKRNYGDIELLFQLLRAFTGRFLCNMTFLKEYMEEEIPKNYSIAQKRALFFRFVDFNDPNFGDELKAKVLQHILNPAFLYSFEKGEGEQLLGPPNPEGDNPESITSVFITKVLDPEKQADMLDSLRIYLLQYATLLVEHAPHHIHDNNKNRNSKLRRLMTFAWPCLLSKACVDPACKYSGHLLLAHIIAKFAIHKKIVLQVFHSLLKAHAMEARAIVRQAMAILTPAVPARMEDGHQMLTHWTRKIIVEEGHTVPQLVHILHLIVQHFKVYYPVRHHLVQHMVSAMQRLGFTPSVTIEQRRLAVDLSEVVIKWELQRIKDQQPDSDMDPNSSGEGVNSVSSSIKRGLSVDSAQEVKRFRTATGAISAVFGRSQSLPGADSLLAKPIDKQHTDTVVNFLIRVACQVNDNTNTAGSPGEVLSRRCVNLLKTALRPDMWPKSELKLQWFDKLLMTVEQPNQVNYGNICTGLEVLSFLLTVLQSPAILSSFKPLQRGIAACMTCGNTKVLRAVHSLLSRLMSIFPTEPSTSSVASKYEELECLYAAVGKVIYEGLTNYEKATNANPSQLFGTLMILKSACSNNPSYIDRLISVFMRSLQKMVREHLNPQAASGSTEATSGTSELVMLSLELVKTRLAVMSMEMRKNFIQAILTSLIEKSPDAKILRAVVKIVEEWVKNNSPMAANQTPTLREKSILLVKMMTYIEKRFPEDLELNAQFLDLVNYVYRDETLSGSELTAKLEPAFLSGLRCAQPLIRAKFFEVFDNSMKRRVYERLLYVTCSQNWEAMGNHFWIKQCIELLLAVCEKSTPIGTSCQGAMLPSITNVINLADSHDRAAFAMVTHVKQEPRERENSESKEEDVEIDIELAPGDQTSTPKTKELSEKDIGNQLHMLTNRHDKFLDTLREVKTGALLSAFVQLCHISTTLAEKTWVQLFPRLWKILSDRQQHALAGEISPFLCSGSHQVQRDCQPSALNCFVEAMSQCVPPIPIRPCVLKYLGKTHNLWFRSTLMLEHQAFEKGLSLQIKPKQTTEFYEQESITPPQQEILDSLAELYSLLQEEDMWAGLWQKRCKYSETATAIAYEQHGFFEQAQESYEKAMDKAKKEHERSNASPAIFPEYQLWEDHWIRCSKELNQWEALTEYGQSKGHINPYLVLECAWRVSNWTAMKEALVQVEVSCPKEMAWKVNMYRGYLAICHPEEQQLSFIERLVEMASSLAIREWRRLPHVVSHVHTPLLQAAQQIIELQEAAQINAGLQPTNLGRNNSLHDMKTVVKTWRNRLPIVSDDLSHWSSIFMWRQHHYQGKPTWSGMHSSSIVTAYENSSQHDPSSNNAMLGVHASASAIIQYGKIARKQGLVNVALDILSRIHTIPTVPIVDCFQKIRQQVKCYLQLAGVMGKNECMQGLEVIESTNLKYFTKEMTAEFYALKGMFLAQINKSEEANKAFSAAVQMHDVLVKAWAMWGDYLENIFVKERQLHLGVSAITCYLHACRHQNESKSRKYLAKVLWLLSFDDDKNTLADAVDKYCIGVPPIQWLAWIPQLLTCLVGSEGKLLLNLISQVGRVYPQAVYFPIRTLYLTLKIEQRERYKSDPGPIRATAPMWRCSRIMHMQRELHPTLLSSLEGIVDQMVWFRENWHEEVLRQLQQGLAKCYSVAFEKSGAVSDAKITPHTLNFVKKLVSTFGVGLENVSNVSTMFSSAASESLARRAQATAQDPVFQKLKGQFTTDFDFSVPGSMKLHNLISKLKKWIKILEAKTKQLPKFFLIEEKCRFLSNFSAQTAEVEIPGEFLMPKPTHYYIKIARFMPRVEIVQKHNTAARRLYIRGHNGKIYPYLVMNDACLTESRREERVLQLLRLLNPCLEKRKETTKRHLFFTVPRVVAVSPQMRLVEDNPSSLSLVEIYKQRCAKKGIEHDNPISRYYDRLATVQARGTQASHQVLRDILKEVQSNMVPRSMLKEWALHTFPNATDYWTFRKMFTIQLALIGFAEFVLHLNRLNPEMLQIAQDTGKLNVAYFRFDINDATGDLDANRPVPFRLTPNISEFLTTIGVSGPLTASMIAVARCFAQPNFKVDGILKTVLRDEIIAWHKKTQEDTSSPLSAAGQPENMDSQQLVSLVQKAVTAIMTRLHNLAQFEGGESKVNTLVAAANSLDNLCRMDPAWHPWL
UniProt Q02880: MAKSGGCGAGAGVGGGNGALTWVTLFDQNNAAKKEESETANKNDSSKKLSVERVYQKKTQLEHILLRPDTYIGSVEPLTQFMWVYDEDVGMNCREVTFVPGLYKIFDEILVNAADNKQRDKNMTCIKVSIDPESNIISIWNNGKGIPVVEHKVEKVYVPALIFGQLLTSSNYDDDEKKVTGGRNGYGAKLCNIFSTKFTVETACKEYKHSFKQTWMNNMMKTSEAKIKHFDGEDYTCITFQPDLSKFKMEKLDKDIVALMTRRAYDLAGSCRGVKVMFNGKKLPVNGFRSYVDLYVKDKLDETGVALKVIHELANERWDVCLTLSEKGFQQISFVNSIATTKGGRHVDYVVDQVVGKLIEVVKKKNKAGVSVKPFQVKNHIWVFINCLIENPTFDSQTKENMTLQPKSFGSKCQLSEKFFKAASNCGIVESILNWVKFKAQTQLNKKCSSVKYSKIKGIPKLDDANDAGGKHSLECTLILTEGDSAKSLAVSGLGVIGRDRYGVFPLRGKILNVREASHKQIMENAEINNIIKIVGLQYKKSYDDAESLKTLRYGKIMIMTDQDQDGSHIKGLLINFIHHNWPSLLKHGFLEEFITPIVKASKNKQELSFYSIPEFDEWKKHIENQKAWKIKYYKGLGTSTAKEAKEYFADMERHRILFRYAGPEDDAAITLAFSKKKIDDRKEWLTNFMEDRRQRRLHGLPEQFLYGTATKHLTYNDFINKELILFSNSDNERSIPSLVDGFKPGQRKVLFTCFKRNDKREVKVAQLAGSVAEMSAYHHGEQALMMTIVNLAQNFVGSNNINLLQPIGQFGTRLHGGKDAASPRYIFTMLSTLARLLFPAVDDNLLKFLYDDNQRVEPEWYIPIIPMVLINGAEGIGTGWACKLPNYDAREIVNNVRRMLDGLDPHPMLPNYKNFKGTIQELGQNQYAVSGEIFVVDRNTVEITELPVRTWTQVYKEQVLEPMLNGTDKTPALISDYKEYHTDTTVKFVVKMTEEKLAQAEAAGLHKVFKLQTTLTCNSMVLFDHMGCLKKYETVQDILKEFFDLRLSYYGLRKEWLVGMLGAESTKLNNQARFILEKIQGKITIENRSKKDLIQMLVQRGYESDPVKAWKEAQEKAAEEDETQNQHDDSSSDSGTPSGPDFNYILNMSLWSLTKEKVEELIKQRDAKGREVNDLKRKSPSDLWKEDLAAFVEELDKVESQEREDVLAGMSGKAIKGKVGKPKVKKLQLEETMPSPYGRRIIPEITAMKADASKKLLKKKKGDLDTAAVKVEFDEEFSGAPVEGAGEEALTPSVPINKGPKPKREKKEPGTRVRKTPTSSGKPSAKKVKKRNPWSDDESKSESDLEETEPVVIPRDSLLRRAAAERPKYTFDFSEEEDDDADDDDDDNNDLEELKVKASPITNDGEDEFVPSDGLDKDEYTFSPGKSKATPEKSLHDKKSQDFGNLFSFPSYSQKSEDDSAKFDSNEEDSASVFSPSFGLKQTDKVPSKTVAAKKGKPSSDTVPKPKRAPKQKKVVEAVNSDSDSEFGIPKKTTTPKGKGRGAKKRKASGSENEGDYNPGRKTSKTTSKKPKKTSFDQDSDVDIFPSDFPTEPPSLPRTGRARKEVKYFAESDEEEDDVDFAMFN

What was measured:
[1] = target: MYCN (human (endogenous in IMR-32 and IMR-5)) (UniProt P04198); assay: co-IP
[2] = target: MYCN (human (endogenous in IMR-32 and IMR-5)) (UniProt P04198); assay: proximity ligation
[3] = target: MYCN (human (endogenous in IMR-32 and IMR-5)) (UniProt P04198); assay: co-IP; remark: listed apart in the source
[4] = target: MYCN (human (endogenous in IMR-32 and IMR-5)) (UniProt P04198); assay: co-IP; remark: listed apart in the source

Molecule	binding [1]	binding [2]	binding [3]	binding [4]
EXOSC5 AID (endogenous EXOSC5 fused to an auxin-inducible degron) (from UniProt Q9NQT4 1-235)	binds	–	–	–
ZFC3H1 (from UniProt O60293 1-1989)	no binding	–	–	–
MAX (from UniProt P61244 1-160)	binds	binds	–	–
KAT5 (TIP60) (from UniProt Q92993 1-513)	–	binds	–	–
TRRAP (from UniProt Q9Y4A5 1-3859)	binds	binds	–	–
TOP2B (from UniProt Q02880 1-1626)	–	binds	–	–
B1	binds	–	binds	binds
B2	binds	–	binds	binds
B3	no binding	–	–	–

From doi:10.1101/2023.08.16.553474
